The values that follow come from paper PMC11335345.

The chains behind the UniProt entries cited, without tags or fusion partners.
UniProt Q9WTX5: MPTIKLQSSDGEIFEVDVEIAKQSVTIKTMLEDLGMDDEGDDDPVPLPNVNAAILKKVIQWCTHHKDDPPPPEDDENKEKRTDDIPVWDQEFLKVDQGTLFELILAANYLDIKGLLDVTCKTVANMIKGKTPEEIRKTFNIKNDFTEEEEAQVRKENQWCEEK
UniProt Q14974: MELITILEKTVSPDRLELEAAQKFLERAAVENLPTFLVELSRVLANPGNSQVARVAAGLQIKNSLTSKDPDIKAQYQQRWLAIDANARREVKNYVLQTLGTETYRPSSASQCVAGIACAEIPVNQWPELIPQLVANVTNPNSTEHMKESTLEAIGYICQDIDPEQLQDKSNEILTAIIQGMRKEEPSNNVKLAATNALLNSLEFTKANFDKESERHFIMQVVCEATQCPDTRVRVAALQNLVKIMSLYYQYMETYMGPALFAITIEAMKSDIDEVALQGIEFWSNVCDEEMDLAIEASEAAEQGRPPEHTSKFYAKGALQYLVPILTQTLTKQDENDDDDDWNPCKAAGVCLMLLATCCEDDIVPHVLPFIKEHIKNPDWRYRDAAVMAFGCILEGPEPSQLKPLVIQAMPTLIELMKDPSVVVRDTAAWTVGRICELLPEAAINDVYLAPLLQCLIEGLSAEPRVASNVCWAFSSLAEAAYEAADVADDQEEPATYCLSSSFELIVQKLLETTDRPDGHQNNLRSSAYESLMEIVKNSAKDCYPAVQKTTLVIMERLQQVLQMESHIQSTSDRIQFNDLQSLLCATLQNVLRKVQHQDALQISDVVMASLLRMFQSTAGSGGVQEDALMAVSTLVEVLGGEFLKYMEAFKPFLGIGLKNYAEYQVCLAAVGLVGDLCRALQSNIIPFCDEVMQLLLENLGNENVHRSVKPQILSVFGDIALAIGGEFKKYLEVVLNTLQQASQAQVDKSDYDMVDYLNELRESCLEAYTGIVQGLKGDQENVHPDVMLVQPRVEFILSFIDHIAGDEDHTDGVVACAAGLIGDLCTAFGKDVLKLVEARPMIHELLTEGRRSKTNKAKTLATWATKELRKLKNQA

No constants are given. Whether binding was seen depends on the method and setting. In cells and extracts the contact can be indirect. Some entries that bind do so weakly or less than the wild type. Sequences can lack the tags named with a protein.

Test [1] has as its target T1, FBXO24 (F-box protein 24) tagged with 3×FLAG, wild type (mouse) (UniProt Q9D417).
T1 sequence: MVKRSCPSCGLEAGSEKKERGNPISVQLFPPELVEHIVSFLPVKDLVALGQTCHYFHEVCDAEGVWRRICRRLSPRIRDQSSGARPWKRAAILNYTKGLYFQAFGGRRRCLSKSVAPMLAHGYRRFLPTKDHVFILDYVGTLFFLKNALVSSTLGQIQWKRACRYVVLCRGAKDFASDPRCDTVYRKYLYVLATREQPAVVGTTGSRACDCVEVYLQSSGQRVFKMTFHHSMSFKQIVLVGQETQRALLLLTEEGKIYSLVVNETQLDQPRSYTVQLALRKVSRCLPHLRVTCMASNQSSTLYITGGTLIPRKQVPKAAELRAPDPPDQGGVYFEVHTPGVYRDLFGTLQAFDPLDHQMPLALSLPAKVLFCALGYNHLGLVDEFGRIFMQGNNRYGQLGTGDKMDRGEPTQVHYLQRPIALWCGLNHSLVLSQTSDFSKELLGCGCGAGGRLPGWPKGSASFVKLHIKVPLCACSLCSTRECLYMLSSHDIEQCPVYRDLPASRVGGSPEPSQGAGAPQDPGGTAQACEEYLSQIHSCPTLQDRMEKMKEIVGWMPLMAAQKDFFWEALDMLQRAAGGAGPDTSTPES
Nature of the test: co-IP; 3×FLAG-tagged Fbxo24 transiently expressed in HEK293T cells; IP with anti-FLAG antibody; endogenous IPO5 and KPNB1 detected by immunoblotting. Background: In western blotting, separated proteins are transferred to a membrane and probed.

In test [2] the target is SKP1 tagged with 1D4 (mouse) (UniProt Q9WTX5). Nature of the test: co-IP; Fbxo24 (WT or ΔF)-FLAG co-expressed with Skp1-1D4 in HEK293T cells; 1% Triton X-100 lysis buffer (50 mM Tris-HCl pH 7.4, 150 mM NaCl); IP with anti-1D4 or anti-FLAG antibody on Protein G magnetic beads, 1 hr at 4°C; immunoblotting.
For test [3], the target named is T2, FBXO24-3×FLAG expressed in testes of transgenic mice under the Prm1 promoter (mouse) (UniProt Q9D417).
T2 sequence: T1 sequence
In words: co-IP; IP of FBXO24-FLAG from Fbxo24-FLAG Tg mouse testes with anti-FLAG antibody; IPO5 detected by immunoblotting with mouse anti-IPO5 monoclonal antibody.

As to “KPNB1 (karyopherin subunit beta 1), endogenous in HEK293T cells (from UniProt Q14974 1-876)”, the binding result in test [1] was “no binding”.

B1: FBXO24 (F-box protein 24) tagged with 3×FLAG, wild type (protein, UniProt Q9D417 1-589)
chain: T1 sequence
With B1, in test [2], the binding result is given as “binds”.

B2: IPO5 (importin 5), endogenous in mouse testis (protein, UniProt Q8BKC5 1-1097)
chain: MAAAAAEQQQFYLLLGNLLSPDNVVRKQAEETYENIPGRSKITFLLQAIRNTTAAEEARQMAAVLLRRLLSSAFDEVYPALPSDVQTAIKSELLMIIQMETQSSMRKKICDIAAELARNLIDEDGNNQWPEGLKFLFDSVSSQNMGLREAALHIFWNFPGIFGNQQQHYLDVIKRMLVQCMQDQEHPSIRTLSARATAAFILANEHNVALFKHFADLLPGFLQAVNDSCYQNDDSVLKSLVEIADTVPKYLRPHLEATLQLSLKLCGDTNLNNMQRQLALEVIVTLSETAAAMLRKHTSLIAQTIPQMLAMMVDLEEDEDWANADELEDDDFDSNAVAGESALDRMACGLGGKLVLPMIKEHIMQMLQNPDWKYRHAGLMALSAIGEGCHQQMEGILNEIVNFVLLFLQDPHPRVRYAACNAVGQMATDFAPGFQKKFHEKVIAALLQTMEDQGNQRVQAHAAAALINFTEDCPKSLLIPYLDNLVKHLHSIMVLKLQELIQKGTKLVLEQVVTSIASVADTAEEKFVPYYDLFMPSLKHIVENAVQKELRLLRGKTIECISLIGLAVGKEKFMQDASDVMQLLLKTQTDFNDMEDDDPQISYMISAWARMCKILGKEFQQYLPVVMGPLMKTASIKPEVALLDTQDMENMSDDDGWEFVNLGDQQSFGIKTAGLEEKSTACQMLVCYAKELKEGFVEYTEQVVKLMVPLLKFYFHDGVRVAAAESMPLLLECARVRGPEYLTQMWHFMCDALIKAIGTEPDSDVLSEIMHSFAKCIEVMGDGCLNNEHFEELGGILKAKLEEHFKNQELRQVKRQDEDYDEQVEESLQDEDDNDVYILTKVSDILHSIFSSYKEKVLPWFEQLLPLIVNLICPQRPWPDRQWGLCIFDDIVEHCSPASFKYAEYFISPMLQYVCDNSPEVRQAAAYGLGVMAQFGGDNYRPFCTDALPLLVRVIQAPEAKTKENVNATENCISAVGKIMKFKPDCVNVEEVLPHWLSWLPLHEDKEEAVQTFSYLCDLIESNHPIVLGPNNTNLPKIFSIIAEGEMHEAIKHEDPCAKRLANVVRQVQTSGGLWTECIAQLSPEQQAAIQELLNSA
In the case of B2, the binding entry in test [3] is “binds”.

B3: IPO5 (importin 5), endogenous in HEK293T cells (protein, UniProt O00410 1-1097)
chain: MAAAAAEQQQFYLLLGNLLSPDNVVRKQAEETYENIPGQSKITFLLQAIRNTTAAEEARQMAAVLLRRLLSSAFDEVYPALPSDVQTAIKSELLMIIQMETQSSMRKKVCDIAAELARNLIDEDGNNQWPEGLKFLFDSVSSQNVGLREAALHIFWNFPGIFGNQQQHYLDVIKRMLVQCMQDQEHPSIRTLSARATAAFILANEHNVALFKHFADLLPGFLQAVNDSCYQNDDSVLKSLVEIADTVPKYLRPHLEATLQLSLKLCGDTSLNNMQRQLALEVIVTLSETAAAMLRKHTNIVAQTIPQMLAMMVDLEEDEDWANADELEDDDFDSNAVAGESALDRMACGLGGKLVLPMIKEHIMQMLQNPDWKYRHAGLMALSAIGEGCHQQMEGILNEIVNFVLLFLQDPHPRVRYAACNAVGQMATDFAPGFQKKFHEKVIAALLQTMEDQGNQRVQAHAAAALINFTEDCPKSLLIPYLDNLVKHLHSIMVLKLQELIQKGTKLVLEQVVTSIASVADTAEEKFVPYYDLFMPSLKHIVENAVQKELRLLRGKTIECISLIGLAVGKEKFMQDASDVMQLLLKTQTDFNDMEDDDPQISYMISAWARMCKILGKEFQQYLPVVMGPLMKTASIKPEVALLDTQDMENMSDDDGWEFVNLGDQQSFGIKTAGLEEKSTACQMLVCYAKELKEGFVEYTEQVVKLMVPLLKFYFHDGVRVAAAESMPLLLECARVRGPEYLTQMWHFMCDALIKAIGTEPDSDVLSEIMHSFAKCIEVMGDGCLNNEHFEELGGILKAKLEEHFKNQELRQVKRQDEDYDEQVEESLQDEDDNDVYILTKVSDILHSIFSSYKEKVLPWFEQLLPLIVNLICPHRPWPDRQWGLCIFDDVIEHCSPASFKYAEYFLRPMLQYVCDNSPEVRQAAAYGLGVMAQYGGDNYRPFCTEALPLLVRVIQSADSKTKENVNATENCISAVGKIMKFKPDCVNVEEVLPHWLSWLPLHEDKEEAVQTFNYLCDLIESNHPIVLGPNNTNLPKIFSIIAEGEMHEAIKHEDPCAKRLANVVRQVQTSGGLWTECIAQLSPEQQAAIQELLNSA
As for B3, in test [1], the binding result is recorded as “binds”.
